Results taken from US20190099470A1.
No constants are given. Whether binding was seen depends on the method and setting. Some binding calls cover weakened binding; strength is not graded here.

Tests used:
Conditions in all cases: remark: other sources report otherwise
[1] = target: T1, Mouse MAVS, endogenous, on mitochondria of wild-type MEFs and BMDCs (mouse), Q8VCF0; assay: self-oligomerization on purified MEF mitochondria; gel electrophoresis and immunoblot
T1 chain: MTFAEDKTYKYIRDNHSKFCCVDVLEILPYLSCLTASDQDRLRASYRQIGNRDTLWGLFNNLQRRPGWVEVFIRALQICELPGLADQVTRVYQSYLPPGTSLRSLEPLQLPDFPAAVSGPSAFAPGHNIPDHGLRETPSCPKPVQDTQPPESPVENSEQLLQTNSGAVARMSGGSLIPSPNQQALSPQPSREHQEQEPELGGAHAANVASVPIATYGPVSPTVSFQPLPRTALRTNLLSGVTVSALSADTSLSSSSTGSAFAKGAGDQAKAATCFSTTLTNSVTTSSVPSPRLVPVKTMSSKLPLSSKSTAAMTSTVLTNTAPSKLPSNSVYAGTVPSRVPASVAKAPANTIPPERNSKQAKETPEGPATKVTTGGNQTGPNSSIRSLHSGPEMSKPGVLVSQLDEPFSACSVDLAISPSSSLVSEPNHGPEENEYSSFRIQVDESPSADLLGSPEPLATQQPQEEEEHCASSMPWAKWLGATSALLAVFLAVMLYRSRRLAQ

[2] = target: T1, Mouse MAVS, endogenous, on mitochondria …; assay: self-oligomerization in MEFs; immunoblot
[3] = target: T1, Mouse MAVS, endogenous, on mitochondria …; assay: self-oligomerization in MEFs; semi-denaturing gel electrophoresis and immunoblot
IRF3 (mouse), P70671 = target: T2, IRF3 (mouse), P70671; assay: immunoblot of mitochondrial fraction of BMDC treated with purified MAVS aggregates from SLE plasma
T2 chain: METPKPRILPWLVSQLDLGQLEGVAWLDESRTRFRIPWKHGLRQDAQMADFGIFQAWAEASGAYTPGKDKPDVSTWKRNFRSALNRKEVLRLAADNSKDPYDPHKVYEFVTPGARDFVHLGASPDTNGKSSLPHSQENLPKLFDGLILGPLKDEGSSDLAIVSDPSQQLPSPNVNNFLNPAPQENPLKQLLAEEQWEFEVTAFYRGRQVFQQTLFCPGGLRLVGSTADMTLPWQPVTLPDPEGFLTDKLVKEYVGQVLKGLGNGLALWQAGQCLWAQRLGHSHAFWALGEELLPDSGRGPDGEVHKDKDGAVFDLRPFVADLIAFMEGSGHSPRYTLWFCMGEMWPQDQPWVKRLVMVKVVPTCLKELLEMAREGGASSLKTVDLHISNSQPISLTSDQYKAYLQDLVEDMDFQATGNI

B1: Mouse MAVS, endogenous, on mitochondria of wild-type MEFs and BMDCs, Q8VCF0 1-503 (protein, UniProt Q8VCF0 1-503, looked up)
chain: T1 chain
In the case of B1, the binding [1] is reported as “binds”, the binding [2] is reported as “binds” and the binding [3] is reported as “binds”.

B2: IRF3, P70671 1-419 (protein, mouse, UniProt P70671 1-419, looked up)
chain: T2 chain
For B2, the binding (IRF3 (mouse), P70671) was “binds”.
